Laboratory results: patent US20090258030A1, “Materials and Methods for Improving Livestock Productivity” (priority 2006, published 2009)
Counter-ions that a name gives are not always drawn.

Assay: Sensory evaluation of pork from swine fed diets with cysteamine HCl (Example 3)
Format: in vivo
Settings: 150 g cysteamine hydrochloride per ton of feed

SMILES: NCCS [Cysteamine Hydrochloride, cysteamine hydrochloride]
- sensory review of meat flavor and attributes, treated vs untreated swine: no significant difference
